The record followed here is the supplement of paper PMC3334620.

The full ranking holds about 33,000 sequences; the median of “E-score (-0.5 to 0.5)” is about -0.0034, and the highest 2% start at about 0.25. The list shows a part of the results.

In this experiment the target is T1, Yap3 (UniProt P38749).
T1 sequence: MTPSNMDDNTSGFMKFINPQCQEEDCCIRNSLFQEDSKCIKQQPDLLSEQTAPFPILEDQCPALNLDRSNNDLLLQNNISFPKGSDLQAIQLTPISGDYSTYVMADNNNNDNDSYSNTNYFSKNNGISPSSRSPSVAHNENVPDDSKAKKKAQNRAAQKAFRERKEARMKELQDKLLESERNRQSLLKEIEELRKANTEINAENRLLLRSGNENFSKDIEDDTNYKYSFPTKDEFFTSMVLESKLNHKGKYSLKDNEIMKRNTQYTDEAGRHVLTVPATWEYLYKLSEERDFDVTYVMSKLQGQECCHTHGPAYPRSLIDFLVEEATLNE
Nature of the experiment: PBM E-score (8-mer binding enrichment) (E-score (-0.5 to 0.5)); higher = stronger / more preferred TF binding. Particulars: protein concentration: 100 nM; construct: GST-full length. The essentials:
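The E-score, a modified Wilcoxon-Mann-Whitney statistic, was computed by the Universal PBM Analysis Suite for every ungapped eight-base word pooled with its reverse complement. Scans behind it were normalised with masliner after bound GST-tagged yeast transcription factors were detected with fluorescent anti-GST. The proteins, at about 100-200 nM, had been applied to universal all-10-mer Agilent arrays made double-stranded by primer extension.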
Regarding AATACTAT, the “PBM E-score” value turned out to be 0.239.

For CGTCGGCC, the “PBM E-score” value was -0.0998.

With GAGCCTTA, the “PBM E-score” value was -0.0398.

For GACTTGGC, the “PBM E-score” value was -0.224.

For ATGACAAG, the “PBM E-score” value was -0.0324.

With GTCTGCTA, the “PBM E-score” value came out at 0.0968.

Consider CCCCCTCG, for which the “PBM E-score” value is -0.356.

Regarding CAAGACCA, the “PBM E-score” value was -0.212.

Take AAGGAGGC: the “PBM E-score” value is -0.179.

With ATAGAATA, the “PBM E-score” value amounted to 0.203.

As for CATGACGC, the “PBM E-score” value is 0.0683.

On to ACTTCTGC, for which the “PBM E-score” value stood at 0.0493.

For ATTATGGG, the “PBM E-score” value was found to be 0.0706.

For CCTGTGTA, the “PBM E-score” value is 0.133.

For the sequence CTGCAACA, the “PBM E-score” value is 0.0395.

For ATCTATCA, the “PBM E-score” value is 0.0468.

As to AAGATATA, the “PBM E-score” value came out at 0.175.

For the sequence AGAGATAC, the “PBM E-score” value came out at 0.0854.

Take AGAGCAAA: the “PBM E-score” value is -0.104.

Consider CCAAGAGG, for which the “PBM E-score” value was -0.219.

On to CAGGAGAG, for which the “PBM E-score” value was -0.122.

Take AGGGTGTC: the “PBM E-score” value is -0.112.

GACATGTC: the “PBM E-score” value was -0.0418.

In the case of ATTATCTA, the “PBM E-score” value was determined as 0.241.

On to AAAAAACA, for which the “PBM E-score” value stood at 0.315.

Consider ACCCGGAC, for which the “PBM E-score” value was -0.329.

Regarding GTTATGCA, the “PBM E-score” value was 0.0493.

In the case of GGCTACCC, the “PBM E-score” value is -0.312.

Take GGATCCGA: the “PBM E-score” value was -0.141.

In the case of ATCATACC, the “PBM E-score” value was 0.232.

As for GAAGGCGA, the “PBM E-score” value is -0.13.

As for CCCGTGTA, the “PBM E-score” value was -0.111.

Take ATATACTA: the “PBM E-score” value worked out at 0.306.

In the case of CAGAGCGG, the “PBM E-score” value is -0.0832.

Turning to CCTGCCTA, the “PBM E-score” value was -0.114.

With AGTTGTTG, the “PBM E-score” value is -0.048.

As to AAGAAACG, the “PBM E-score” value was 0.0274.

Regarding TCAGTCGA, the “PBM E-score” value stood at 0.147.

Regarding CCTGAGAA, the “PBM E-score” value is -0.136.

On to AGAGCTTA, for which the “PBM E-score” value is -0.0123.

In the case of ATCTCATA, the “PBM E-score” value is -0.0161.

For CTACCATC, the “PBM E-score” value is -0.0454.

Take GAGGCCGC: the “PBM E-score” value is -0.216.

Turning to CCCGGAAC, the “PBM E-score” value is -0.0811.

On to AACTGTAA, for which the “PBM E-score” value was 0.219.

GCTGCACC: the “PBM E-score” value was -0.228.

With CGCATTAC, the “PBM E-score” value was 0.121.

Take CGGGCTTA: the “PBM E-score” value was -0.028.

ACCTCATC: the “PBM E-score” value was -0.0769.

For the sequence CGGACCCG, the “PBM E-score” value was -0.139.

Take AGTATATC: the “PBM E-score” value came out at 0.0292.

As for ATGTAGGA, the “PBM E-score” value is -0.138.

Consider ATCGACAT, for which the “PBM E-score” value was determined as 0.0988.

Regarding CGGTTTTC, the “PBM E-score” value came out at 0.0443.

CGTAACTA: the “PBM E-score” value was determined as 0.129.

Consider AAAAGAGC, for which the “PBM E-score” value came to 0.0797.

As for CGTTCGGC, the “PBM E-score” value was -0.0105.

Turning to CACTGAAA, the “PBM E-score” value came to 0.0595.

For the sequence GACCGTAC, the “PBM E-score” value is -0.195.

For the sequence ATGTCCAC, the “PBM E-score” value was -0.0741.

As for ATCCTATA, the “PBM E-score” value stood at 0.26.

With GTGGGACA, the “PBM E-score” value was -0.0961.

For the sequence CAAGTCCC, the “PBM E-score” value is -0.284.

As to ACGTCACC, the “PBM E-score” value was 0.0166.

Consider CGATAATC, for which the “PBM E-score” value turned out to be 0.0223.

As to AGCGGGTG, the “PBM E-score” value was -0.202.

Take GCAAGGGA: the “PBM E-score” value was -0.126.

For ACCTTCAC, the “PBM E-score” value worked out at 0.00082.

For ATATTATC, the “PBM E-score” value amounted to 0.149.

For GATTACAC, the “PBM E-score” value came out at 0.113.

As to CTAGGCCC, the “PBM E-score” value was -0.284.

Take AGTCGCTA: the “PBM E-score” value was -0.158.

Take CATAGCCA: the “PBM E-score” value was 0.0605.

As to AGCGAGCA, the “PBM E-score” value is -0.0316.

With GTCGCCTA, the “PBM E-score” value was -0.114.

As for CGAGCCAA, the “PBM E-score” value is 0.105.

Take CCACGGAC: the “PBM E-score” value is -0.304.

Regarding AAATCAAC, the “PBM E-score” value is 0.121.

With CTCGCTCC, the “PBM E-score” value was -0.0424.

For ACACCAGG, the “PBM E-score” value was -0.237.

As to AGGTATTC, the “PBM E-score” value is 0.116.

For the sequence AATACGCA, the “PBM E-score” value was 0.112.

Consider ACGCGGGC, for which the “PBM E-score” value was -0.0455.

With GCAGTTAC, the “PBM E-score” value was determined as 0.177.

On to CATTATAG, for which the “PBM E-score” value came out at 0.02.

With CACTCTAA, the “PBM E-score” value amounted to 0.0283.
